Values quoted from earlier work, collected in patent US8653052B2, “Drug combination and its use in the treatment of muscle loss” (Acacia Pharma Limited, priority 2007, dated 2014).
Counter-ions that a name gives are not always drawn.

Tested on: rats and mice bearing highly cachectic tumors
Details: cited from earlier work

For COc1ccc(CC(C)NCC(O)c2ccc(O)c(NC=O)c2)cc1 (racemic) [racemic formoterol, (±)-N-[2-Hydroxy-5-[1(R*)-hydroxy-2-[1(R*)-methyl-2-(4-methoxyphenyl)ethylamino]ethyl]phenyl]formamide fumarate (2:1) monohydrate], the “Effect on muscle wasting” value is given as “reversal of the muscle-wasting process”.
